# Data: paper doi:10.1101/2021.08.09.455663
# Amino acid sequences for entries named in this document (tags omitted).
# UniProt P42224: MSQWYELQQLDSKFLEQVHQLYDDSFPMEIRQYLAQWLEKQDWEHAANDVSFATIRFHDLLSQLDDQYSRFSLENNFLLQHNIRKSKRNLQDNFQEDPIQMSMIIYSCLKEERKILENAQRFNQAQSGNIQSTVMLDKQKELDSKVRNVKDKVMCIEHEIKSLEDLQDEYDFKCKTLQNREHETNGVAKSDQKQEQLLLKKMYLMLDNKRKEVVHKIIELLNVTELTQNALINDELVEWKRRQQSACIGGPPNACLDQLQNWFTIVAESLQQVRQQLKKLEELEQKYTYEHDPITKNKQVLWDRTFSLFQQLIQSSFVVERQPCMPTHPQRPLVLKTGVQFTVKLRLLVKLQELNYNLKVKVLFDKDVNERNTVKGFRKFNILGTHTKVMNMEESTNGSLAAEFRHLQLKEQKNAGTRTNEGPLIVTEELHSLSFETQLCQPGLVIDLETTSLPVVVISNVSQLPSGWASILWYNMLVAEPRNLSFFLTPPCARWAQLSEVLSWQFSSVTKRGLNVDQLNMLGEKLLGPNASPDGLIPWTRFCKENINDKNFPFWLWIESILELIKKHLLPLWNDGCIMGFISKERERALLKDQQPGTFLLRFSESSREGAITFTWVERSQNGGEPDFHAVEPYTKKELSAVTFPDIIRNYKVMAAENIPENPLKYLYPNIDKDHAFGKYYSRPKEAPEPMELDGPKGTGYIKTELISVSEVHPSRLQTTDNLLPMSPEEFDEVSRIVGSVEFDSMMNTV
# UniProt Q92793: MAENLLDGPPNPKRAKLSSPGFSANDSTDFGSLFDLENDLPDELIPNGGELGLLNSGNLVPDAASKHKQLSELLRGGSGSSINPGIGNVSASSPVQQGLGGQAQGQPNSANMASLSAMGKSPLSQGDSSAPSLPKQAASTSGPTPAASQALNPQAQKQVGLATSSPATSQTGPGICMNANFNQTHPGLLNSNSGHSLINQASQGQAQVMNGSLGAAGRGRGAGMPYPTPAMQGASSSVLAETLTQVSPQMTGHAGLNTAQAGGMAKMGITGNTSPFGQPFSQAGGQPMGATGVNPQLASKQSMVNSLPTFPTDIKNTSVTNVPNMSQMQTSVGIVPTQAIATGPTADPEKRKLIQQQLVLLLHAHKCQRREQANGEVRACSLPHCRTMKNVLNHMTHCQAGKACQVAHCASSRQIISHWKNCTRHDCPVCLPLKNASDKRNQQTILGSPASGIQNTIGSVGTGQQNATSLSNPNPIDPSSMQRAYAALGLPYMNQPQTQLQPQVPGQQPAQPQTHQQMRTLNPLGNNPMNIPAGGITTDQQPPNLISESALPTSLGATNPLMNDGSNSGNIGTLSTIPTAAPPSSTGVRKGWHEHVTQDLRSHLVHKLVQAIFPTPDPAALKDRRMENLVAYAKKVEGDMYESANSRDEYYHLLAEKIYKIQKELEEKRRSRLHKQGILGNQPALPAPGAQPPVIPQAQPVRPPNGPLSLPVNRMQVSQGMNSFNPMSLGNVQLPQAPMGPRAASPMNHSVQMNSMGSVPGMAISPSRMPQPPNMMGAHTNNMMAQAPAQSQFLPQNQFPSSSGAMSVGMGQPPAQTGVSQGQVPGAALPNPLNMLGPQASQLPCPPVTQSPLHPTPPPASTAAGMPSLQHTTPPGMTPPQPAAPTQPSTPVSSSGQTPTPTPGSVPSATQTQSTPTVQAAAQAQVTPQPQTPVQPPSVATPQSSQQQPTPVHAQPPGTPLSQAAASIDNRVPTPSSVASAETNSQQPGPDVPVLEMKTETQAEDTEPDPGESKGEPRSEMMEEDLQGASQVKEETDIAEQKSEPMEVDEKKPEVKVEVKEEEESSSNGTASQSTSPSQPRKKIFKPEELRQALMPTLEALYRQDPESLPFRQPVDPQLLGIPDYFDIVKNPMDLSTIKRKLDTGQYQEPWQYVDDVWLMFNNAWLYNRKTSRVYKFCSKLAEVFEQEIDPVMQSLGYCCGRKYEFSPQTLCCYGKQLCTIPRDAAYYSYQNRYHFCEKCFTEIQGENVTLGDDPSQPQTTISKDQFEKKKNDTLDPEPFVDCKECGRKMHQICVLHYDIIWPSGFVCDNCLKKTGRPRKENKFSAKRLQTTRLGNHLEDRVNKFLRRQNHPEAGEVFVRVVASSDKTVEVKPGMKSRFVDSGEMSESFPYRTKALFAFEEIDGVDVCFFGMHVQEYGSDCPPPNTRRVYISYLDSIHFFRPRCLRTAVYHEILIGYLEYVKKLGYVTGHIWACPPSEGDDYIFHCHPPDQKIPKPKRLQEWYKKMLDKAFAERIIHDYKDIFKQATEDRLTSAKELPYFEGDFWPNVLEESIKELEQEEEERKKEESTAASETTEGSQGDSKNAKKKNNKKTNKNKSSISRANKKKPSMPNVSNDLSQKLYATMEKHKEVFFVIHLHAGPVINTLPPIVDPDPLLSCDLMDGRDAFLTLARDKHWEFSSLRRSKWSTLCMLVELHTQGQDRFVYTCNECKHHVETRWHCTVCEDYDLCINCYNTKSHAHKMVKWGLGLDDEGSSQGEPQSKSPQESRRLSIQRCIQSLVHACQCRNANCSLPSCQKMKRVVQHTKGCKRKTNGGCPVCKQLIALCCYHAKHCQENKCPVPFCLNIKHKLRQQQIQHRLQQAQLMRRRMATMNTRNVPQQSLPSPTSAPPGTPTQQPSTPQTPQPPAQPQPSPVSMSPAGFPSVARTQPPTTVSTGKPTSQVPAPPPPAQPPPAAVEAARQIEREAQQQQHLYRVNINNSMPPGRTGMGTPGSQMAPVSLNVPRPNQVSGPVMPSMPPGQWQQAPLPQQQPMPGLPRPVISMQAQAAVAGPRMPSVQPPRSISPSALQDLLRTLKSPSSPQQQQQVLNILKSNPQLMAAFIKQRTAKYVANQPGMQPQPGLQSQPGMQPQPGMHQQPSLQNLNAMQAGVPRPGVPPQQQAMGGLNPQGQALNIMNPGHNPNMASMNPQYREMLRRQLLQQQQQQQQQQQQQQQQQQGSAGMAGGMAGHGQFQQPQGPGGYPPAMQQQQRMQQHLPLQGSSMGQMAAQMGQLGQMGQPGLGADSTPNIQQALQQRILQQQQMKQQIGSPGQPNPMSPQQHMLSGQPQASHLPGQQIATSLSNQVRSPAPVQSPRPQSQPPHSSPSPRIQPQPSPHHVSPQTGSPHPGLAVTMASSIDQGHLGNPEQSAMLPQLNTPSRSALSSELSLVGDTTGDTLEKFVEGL
# UniProt Q09472: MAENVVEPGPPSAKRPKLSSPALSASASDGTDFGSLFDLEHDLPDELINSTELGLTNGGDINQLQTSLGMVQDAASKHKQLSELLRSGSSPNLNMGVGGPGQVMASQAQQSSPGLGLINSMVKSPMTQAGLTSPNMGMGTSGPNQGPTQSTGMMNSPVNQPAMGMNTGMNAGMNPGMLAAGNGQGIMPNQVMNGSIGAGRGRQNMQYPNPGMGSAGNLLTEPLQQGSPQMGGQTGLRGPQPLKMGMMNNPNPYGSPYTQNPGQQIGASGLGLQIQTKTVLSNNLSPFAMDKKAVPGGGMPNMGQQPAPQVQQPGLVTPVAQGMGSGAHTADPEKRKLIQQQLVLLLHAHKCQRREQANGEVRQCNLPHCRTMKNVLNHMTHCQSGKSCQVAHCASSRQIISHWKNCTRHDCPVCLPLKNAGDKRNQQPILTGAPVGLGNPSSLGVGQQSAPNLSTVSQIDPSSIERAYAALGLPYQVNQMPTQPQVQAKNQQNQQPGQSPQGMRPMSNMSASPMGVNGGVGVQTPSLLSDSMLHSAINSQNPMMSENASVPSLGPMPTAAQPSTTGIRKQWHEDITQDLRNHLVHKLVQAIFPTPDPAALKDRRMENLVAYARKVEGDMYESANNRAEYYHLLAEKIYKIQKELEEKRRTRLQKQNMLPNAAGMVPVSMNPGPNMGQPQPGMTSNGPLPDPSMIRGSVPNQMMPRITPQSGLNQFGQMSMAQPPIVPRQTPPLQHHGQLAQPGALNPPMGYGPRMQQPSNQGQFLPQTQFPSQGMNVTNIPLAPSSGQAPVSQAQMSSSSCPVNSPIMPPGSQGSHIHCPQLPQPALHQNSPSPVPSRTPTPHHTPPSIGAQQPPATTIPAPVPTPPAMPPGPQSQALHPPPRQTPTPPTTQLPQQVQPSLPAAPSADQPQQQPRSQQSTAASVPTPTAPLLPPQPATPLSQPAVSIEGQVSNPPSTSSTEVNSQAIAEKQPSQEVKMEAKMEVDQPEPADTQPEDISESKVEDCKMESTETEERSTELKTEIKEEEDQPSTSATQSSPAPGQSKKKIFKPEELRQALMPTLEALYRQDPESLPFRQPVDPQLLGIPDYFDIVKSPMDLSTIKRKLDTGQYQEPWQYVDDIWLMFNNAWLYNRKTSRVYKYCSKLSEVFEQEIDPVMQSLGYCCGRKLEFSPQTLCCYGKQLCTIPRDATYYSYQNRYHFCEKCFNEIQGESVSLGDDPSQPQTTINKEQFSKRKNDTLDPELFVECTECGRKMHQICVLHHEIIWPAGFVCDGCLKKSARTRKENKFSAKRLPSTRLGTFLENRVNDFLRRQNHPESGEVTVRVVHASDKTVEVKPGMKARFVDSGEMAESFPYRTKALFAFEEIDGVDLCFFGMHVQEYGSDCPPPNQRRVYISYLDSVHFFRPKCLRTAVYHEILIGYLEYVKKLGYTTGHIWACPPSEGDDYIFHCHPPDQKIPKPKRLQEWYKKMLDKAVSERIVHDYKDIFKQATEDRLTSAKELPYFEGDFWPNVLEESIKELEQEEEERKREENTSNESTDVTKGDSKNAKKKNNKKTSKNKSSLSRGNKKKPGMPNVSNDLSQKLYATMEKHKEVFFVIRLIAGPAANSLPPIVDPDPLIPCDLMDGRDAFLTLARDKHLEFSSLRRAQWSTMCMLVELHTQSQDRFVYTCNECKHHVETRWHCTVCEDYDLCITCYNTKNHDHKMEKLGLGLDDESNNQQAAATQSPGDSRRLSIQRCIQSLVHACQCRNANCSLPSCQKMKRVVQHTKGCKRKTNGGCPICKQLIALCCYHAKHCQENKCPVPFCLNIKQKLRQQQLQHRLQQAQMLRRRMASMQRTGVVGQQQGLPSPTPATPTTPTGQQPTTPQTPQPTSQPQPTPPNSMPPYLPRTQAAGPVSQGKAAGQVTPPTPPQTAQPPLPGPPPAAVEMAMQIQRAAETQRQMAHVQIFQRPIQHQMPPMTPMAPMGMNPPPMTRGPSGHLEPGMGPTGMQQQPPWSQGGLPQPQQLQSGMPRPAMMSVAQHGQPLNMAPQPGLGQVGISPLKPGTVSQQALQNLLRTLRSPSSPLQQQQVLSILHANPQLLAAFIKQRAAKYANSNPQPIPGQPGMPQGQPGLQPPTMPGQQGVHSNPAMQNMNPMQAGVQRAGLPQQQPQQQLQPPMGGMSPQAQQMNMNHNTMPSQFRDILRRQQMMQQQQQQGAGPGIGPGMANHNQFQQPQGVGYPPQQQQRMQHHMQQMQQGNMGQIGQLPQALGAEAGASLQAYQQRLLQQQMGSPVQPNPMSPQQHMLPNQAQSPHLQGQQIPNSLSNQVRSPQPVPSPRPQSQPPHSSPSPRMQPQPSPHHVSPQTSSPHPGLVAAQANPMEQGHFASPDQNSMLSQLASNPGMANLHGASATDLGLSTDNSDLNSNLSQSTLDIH
# Results are given in words; binding and its absence hold for the method and conditions named. Binding seen in cells or lysates may run through a third protein. Some entries that bind do so weakly or less than the wild type.
# Target: STAT1 (total and phosphorylated), HEK293T (human (endogenous in HEK293T)) (UniProt P42224)
# Test: co-IP
row,Substance,binding
1,"CBP, HEK293T (from UniProt Q92793 1-2442)",binds
2,"p300, HEK293T (from UniProt Q09472 1-2414)",binds
